In the supplement of paper PMC11732987, “Enantioselective OTUD7B fragment discovery through chemoproteomics screening and high-throughput optimisation” (Communications Chemistry, 2025):
The other results are listed elsewhere or left out. The data scatter; read single values as rough.

Chains of the proteins cited; added tags and fusions are not shown. Lines headed by an entry give the natural chain unless they say otherwise; changes in a name come on top. Residues count along the entry.
UniProt Q96ES7: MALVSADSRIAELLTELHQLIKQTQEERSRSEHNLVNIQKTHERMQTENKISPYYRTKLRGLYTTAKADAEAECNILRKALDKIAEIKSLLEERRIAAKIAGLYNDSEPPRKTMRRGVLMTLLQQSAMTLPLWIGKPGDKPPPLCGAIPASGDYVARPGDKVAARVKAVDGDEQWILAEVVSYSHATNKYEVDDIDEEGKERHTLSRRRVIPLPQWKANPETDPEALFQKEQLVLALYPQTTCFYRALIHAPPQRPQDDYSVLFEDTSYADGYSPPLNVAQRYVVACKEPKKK
UniProt Q9NR46: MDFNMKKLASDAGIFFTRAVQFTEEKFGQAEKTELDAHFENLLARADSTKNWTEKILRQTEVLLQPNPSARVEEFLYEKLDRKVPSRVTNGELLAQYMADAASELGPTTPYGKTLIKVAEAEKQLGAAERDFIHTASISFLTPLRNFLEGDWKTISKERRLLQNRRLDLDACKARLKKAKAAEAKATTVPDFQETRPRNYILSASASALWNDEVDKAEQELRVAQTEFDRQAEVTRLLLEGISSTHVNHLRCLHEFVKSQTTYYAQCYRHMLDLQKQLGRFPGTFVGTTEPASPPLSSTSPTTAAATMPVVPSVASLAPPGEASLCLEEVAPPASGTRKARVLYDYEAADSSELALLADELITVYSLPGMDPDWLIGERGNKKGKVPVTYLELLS
UniProt Q96FS4: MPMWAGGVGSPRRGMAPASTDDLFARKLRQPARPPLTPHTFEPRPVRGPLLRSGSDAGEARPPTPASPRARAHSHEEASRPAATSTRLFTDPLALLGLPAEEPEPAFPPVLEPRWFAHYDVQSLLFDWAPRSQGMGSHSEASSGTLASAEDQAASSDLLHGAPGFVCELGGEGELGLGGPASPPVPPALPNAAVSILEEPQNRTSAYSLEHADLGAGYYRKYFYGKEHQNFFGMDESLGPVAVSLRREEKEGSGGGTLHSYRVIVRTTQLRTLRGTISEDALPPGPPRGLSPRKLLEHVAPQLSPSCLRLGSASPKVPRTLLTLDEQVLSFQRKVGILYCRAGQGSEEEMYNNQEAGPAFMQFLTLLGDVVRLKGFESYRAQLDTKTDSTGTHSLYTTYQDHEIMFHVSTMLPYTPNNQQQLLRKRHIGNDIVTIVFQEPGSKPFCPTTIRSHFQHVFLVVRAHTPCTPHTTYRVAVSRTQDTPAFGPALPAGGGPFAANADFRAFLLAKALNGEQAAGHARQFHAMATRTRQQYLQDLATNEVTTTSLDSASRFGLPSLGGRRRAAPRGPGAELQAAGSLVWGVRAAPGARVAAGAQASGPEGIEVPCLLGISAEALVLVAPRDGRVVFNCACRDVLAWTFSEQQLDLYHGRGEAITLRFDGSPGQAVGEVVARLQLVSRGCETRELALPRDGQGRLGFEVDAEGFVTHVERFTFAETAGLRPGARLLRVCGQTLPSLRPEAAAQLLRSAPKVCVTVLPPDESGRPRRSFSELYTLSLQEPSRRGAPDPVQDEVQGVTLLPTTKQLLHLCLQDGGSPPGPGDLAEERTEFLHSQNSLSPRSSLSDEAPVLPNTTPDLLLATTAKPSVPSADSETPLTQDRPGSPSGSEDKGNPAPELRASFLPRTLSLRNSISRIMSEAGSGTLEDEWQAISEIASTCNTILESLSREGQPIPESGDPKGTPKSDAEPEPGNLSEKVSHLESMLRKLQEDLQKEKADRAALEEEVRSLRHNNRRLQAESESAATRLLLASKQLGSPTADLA
UniProt Q9H0F6, 129-154: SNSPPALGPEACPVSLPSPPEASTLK
UniProt Q96I15: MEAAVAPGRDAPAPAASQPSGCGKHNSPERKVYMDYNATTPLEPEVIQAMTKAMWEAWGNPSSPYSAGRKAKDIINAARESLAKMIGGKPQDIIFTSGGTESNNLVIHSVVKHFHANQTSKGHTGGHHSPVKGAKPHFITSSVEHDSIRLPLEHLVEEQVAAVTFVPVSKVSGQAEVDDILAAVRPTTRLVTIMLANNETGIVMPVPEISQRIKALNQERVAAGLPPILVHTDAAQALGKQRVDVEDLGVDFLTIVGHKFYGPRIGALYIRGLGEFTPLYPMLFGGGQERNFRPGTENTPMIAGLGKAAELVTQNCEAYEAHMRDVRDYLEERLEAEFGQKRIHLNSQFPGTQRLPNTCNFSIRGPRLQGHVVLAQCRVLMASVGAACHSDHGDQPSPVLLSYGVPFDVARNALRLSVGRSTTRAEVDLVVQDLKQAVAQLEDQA
UniProt Q6IQ49: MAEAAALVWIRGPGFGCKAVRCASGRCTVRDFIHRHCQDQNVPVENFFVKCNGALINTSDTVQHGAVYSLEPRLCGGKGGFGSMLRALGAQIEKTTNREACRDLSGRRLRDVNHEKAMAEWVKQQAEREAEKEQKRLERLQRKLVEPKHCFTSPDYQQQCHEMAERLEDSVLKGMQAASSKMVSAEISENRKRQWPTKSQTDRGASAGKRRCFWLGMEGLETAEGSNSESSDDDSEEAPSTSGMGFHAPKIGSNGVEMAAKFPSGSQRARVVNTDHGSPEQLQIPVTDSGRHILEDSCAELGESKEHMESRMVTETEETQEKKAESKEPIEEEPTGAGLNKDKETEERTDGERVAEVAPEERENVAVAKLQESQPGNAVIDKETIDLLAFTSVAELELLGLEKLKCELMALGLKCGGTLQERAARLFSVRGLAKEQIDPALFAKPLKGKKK
UniProt Q8NDZ2: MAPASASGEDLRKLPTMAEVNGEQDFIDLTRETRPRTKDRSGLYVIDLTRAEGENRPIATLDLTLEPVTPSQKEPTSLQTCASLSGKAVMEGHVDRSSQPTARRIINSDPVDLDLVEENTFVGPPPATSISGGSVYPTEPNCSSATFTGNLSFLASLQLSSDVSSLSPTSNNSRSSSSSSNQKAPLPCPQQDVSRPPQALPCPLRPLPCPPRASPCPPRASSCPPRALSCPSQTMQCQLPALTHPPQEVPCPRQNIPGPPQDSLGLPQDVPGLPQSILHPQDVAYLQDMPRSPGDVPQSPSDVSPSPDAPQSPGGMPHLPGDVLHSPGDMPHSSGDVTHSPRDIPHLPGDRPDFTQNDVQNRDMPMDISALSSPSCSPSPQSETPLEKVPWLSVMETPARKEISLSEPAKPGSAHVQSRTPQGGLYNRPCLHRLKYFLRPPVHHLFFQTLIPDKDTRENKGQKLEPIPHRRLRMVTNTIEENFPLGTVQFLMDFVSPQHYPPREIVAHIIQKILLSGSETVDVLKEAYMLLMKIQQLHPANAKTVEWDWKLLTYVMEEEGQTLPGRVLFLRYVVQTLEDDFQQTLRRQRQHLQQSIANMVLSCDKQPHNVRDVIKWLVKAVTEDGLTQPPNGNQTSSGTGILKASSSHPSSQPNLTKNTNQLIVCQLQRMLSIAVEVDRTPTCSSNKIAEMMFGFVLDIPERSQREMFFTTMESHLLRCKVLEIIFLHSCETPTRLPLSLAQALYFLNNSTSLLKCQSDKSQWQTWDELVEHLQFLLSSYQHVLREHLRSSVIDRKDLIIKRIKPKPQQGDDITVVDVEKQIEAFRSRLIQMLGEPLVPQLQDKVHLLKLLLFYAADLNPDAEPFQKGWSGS
UniProt Q9Y512: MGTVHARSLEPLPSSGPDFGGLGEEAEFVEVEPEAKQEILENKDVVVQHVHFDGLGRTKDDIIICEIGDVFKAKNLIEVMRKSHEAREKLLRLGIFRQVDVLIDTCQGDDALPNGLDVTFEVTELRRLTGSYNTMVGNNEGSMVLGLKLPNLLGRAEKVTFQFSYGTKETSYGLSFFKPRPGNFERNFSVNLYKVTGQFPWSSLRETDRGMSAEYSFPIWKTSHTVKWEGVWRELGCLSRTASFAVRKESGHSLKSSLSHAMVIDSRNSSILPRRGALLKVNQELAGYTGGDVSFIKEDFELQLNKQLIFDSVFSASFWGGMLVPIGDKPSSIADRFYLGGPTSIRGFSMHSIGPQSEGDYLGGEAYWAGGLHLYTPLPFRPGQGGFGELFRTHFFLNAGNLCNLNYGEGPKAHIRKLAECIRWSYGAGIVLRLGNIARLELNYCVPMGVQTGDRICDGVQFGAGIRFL
UniProt Q562F6: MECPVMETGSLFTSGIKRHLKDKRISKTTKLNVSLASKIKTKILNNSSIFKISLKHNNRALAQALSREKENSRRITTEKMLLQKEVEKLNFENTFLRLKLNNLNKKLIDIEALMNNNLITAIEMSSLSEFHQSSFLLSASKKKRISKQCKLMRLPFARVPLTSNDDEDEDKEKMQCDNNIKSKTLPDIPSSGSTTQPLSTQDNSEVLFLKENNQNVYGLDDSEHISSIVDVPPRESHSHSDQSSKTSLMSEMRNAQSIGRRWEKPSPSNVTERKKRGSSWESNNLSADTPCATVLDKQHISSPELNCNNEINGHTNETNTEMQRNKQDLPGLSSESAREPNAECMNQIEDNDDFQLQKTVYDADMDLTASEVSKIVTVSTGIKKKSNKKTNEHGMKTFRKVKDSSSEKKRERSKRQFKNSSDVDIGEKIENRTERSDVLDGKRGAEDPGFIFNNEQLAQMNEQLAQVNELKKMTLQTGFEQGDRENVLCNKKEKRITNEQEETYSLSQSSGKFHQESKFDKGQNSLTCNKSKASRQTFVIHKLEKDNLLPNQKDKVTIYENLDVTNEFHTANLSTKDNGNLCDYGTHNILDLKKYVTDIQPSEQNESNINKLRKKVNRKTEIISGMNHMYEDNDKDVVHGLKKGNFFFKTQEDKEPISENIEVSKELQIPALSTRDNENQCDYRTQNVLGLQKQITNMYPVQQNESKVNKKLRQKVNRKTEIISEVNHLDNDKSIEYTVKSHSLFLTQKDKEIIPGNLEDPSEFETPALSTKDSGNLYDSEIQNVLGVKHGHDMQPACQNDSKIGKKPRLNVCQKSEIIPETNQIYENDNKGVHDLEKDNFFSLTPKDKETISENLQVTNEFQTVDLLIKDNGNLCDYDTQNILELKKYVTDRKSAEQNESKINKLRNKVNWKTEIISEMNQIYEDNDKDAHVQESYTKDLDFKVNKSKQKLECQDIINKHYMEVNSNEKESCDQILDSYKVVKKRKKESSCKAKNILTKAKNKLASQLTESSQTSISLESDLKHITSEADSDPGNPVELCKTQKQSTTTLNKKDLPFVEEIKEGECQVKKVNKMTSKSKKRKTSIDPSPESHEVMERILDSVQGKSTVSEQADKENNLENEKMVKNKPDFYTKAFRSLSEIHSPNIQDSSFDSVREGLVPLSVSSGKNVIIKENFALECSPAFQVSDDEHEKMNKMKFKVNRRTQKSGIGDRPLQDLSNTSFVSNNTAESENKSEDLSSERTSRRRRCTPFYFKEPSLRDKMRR
UniProt Q96EB6: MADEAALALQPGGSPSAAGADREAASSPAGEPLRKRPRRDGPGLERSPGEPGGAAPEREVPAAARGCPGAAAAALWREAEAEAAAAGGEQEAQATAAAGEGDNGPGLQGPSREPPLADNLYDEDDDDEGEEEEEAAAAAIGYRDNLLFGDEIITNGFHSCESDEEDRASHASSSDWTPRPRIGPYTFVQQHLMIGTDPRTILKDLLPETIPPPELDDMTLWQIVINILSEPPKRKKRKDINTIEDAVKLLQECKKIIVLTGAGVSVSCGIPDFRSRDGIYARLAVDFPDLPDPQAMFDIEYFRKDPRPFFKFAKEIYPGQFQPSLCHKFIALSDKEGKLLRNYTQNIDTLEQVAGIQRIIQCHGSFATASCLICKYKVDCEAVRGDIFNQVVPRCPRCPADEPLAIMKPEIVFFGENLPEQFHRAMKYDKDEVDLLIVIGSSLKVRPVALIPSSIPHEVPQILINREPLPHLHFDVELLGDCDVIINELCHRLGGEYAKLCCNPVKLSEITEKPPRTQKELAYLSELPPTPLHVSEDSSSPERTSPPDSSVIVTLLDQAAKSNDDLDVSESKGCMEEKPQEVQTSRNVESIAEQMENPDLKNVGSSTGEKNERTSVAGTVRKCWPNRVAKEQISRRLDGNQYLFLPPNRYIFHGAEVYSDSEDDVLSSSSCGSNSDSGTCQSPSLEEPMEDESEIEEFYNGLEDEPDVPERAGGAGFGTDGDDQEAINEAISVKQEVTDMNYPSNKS
UniProt P29353: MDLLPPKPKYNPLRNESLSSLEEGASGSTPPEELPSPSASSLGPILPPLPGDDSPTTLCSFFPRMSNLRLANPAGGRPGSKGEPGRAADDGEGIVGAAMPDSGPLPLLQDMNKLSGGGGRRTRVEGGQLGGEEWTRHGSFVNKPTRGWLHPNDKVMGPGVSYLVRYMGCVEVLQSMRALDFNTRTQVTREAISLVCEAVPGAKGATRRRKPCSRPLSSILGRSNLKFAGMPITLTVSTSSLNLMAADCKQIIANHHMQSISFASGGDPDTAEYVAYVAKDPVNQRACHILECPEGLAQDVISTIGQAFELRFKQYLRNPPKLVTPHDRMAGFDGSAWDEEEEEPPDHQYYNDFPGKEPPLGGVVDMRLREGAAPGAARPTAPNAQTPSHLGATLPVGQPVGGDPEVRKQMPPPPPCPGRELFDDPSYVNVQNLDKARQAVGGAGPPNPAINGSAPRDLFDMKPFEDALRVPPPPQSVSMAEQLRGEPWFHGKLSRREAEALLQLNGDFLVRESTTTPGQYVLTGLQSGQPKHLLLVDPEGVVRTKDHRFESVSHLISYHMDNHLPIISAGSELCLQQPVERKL

Columns and labels:
[1] = compound: ClCC(=O)N[C@@H]1CCCc2ccccc12; assay: log2 mean competition ratio of IA-DTB cysteine labelling (DMSO/compound) (log2 ratio); higher = stronger cysteine engagement by compound; details: treatment time: 4 h, cell line lysate: HEK293T
Protocol: (§1)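 IA-DTB competitive cysteine chemoproteomics in HEK293T RIPA lysate. Lysates were treated with compound 29 or 30 at 50 or 200 µM for 4 h, then IA-DTB (500 µM, 1 h), trypsin-digested, NeutrAvidin-enriched and analysed by diaPASEF. Competition ratio = intensity DMSO / intensity compound (n=4 treated, n=64 DMSO); binding: mean log2 CR ≥ 1 and p ≤ 0.05 plus QC filters. Target is the cysteine site.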

[2] = compound: ClCC(=O)N[C@H]1CCCc2ccccc12; assay: as above; details: treatment time: 4 h, cell line lysate: HEK293T
Protocol: as §1

Target	log2 mean competition ratio ([1]; 50 µM)	log2 mean competition ratio ([2]; 50 µM)	log2 mean competition ratio ([1]; 200 µM)	log2 mean competition ratio ([2]; 200 µM)
SEMA4F C170	-0.0797	-0.304	–	–
SIPA1L3 C407	-0.121	-0.41	0.226	0.144
SGF29 C74 (UniProt Q96ES7)	-0.265	0.0383	0.613	0.202
SH3GLB2 C267 (UniProt Q9NR46)	0.268	0.209	-0.0721	-0.313
SIPA1 C755 (UniProt Q96FS4)	0.356	-0.67	0.316	0.0357
SHARPIN C140 (UniProt Q9H0F6)	-0.242	0.266	-0.213	-0.199
SCLY C22 (UniProt Q96I15)	-0.0695	-0.146	0.115	0.0724
SDE2 C415 (UniProt Q6IQ49)	0.166	0.0208	0.0204	0.00201
SASS6 C444 (UniProt Q6UVJ0)	-0.0541	-0.12	0.353	0.0695
SEMA4F C53	0.0497	-0.161	–	-0.232
SIMC1 C216 (UniProt Q8NDZ2)	-0.051	-0.271	0.163	0.301
SAMM50 C457 (UniProt Q9Y512)	0.31	-0.0583	-0.0574	-0.0809
SGO2 C798 (UniProt Q562F6)	-0.193	0.133	0.241	0.0268
SIRT1 C574 (UniProt Q96EB6)	-0.0175	-0.138	0.112	-0.2
SHC1 C416 (UniProt P29353)	0.000633	-0.302	-0.161	0.00835

Single records, as listed above. Order of values: log2 mean competition ratio ([1]; 50 µM)	log2 mean competition ratio ([2]; 50 µM)	log2 mean competition ratio ([1]; 200 µM)	log2 mean competition ratio ([2]; 200 µM)
SEMA4F C53 is listed with 0.0497	-0.161	–	-0.232
SH3GLB2 C267 (UniProt Q9NR46) is listed with 0.268	0.209	-0.0721	-0.313
